Some of the results follow.

Sequences of proteins named here, by UniProt entry; tags and fusion partners are left off. A change or cut given only in a name is not applied to a line headed by its entry.
UniProt Q86T23: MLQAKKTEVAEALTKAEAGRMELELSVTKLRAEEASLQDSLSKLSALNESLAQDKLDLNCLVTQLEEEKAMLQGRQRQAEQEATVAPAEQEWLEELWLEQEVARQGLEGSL
UniProt P53674: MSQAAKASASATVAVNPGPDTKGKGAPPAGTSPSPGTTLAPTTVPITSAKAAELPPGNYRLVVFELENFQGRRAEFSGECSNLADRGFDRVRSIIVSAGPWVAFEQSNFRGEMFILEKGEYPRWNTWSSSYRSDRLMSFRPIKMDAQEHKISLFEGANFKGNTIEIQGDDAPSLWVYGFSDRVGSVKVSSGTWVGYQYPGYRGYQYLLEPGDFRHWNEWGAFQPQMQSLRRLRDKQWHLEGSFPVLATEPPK
UniProt Q7Z4G1, whole entry, looked up: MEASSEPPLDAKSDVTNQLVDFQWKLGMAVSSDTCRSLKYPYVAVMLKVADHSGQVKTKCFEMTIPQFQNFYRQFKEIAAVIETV
UniProt P78560: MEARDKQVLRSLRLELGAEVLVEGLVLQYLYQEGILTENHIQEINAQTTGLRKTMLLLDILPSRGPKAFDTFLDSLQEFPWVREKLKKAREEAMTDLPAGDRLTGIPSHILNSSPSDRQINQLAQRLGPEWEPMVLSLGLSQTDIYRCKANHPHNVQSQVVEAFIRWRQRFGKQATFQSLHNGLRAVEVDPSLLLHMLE
UniProt Q9HCH3: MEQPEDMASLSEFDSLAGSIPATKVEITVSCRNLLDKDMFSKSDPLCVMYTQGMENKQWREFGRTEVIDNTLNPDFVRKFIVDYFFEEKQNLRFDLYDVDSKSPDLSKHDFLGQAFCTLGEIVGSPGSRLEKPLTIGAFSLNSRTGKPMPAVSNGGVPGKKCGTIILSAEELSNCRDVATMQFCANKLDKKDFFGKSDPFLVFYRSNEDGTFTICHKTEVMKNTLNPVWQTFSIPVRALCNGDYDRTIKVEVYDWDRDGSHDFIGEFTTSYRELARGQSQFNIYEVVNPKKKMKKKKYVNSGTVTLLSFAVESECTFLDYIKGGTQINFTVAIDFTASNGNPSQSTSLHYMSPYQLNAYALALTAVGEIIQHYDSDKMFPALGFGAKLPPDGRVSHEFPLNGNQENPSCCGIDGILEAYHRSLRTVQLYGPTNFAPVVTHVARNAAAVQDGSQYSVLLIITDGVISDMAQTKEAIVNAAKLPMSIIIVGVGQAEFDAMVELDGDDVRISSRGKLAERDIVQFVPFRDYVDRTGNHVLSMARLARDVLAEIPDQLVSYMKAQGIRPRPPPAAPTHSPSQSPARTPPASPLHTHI
UniProt Q70SY1: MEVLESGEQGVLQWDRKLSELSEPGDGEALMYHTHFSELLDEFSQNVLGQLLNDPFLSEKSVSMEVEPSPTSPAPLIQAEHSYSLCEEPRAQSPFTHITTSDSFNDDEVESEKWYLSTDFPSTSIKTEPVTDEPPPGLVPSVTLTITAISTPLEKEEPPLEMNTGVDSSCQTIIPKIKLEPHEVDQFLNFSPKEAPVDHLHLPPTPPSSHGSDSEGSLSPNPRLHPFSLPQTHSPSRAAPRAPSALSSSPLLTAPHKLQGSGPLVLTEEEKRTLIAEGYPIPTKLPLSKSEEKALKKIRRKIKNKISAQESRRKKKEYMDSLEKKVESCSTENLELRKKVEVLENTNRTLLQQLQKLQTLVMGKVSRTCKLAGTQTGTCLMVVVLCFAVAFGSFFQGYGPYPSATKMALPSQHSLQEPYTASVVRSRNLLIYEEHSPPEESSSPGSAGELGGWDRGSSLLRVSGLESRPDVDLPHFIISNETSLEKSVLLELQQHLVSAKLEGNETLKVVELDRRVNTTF
UniProt Q9BXS0: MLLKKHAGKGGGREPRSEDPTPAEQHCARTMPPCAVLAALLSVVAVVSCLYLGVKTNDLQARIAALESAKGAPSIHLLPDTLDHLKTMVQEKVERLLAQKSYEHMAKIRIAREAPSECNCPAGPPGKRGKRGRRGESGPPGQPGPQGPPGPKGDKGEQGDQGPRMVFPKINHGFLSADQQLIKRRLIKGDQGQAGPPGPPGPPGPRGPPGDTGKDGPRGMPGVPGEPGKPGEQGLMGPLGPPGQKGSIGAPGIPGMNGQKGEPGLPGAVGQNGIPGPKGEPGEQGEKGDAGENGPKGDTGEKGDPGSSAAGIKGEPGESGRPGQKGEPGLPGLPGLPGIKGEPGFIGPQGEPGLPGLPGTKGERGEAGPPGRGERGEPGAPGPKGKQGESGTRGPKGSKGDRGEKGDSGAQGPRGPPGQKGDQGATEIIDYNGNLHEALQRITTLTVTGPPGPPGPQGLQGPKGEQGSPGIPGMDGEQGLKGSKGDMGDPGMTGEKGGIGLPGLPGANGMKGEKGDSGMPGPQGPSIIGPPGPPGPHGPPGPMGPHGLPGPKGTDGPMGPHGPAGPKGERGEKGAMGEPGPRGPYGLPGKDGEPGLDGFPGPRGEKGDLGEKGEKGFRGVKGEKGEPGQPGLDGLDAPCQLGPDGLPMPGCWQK
UniProt Q9UBL6: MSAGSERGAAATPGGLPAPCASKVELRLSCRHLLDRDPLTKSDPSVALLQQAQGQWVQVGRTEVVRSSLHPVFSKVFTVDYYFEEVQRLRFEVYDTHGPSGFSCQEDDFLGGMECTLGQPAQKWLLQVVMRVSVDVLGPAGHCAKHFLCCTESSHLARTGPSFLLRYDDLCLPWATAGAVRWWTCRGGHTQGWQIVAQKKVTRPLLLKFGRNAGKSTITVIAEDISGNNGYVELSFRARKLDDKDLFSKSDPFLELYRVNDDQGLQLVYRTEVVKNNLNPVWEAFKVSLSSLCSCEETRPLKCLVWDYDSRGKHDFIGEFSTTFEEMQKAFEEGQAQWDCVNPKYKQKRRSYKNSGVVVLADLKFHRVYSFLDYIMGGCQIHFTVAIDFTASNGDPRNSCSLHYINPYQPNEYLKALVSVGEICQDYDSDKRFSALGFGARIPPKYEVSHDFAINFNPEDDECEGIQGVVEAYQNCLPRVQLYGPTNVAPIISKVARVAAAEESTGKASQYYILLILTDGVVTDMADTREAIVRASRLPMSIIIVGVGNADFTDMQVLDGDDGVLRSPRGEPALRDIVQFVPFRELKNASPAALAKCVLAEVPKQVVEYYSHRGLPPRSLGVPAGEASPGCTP
UniProt P12111: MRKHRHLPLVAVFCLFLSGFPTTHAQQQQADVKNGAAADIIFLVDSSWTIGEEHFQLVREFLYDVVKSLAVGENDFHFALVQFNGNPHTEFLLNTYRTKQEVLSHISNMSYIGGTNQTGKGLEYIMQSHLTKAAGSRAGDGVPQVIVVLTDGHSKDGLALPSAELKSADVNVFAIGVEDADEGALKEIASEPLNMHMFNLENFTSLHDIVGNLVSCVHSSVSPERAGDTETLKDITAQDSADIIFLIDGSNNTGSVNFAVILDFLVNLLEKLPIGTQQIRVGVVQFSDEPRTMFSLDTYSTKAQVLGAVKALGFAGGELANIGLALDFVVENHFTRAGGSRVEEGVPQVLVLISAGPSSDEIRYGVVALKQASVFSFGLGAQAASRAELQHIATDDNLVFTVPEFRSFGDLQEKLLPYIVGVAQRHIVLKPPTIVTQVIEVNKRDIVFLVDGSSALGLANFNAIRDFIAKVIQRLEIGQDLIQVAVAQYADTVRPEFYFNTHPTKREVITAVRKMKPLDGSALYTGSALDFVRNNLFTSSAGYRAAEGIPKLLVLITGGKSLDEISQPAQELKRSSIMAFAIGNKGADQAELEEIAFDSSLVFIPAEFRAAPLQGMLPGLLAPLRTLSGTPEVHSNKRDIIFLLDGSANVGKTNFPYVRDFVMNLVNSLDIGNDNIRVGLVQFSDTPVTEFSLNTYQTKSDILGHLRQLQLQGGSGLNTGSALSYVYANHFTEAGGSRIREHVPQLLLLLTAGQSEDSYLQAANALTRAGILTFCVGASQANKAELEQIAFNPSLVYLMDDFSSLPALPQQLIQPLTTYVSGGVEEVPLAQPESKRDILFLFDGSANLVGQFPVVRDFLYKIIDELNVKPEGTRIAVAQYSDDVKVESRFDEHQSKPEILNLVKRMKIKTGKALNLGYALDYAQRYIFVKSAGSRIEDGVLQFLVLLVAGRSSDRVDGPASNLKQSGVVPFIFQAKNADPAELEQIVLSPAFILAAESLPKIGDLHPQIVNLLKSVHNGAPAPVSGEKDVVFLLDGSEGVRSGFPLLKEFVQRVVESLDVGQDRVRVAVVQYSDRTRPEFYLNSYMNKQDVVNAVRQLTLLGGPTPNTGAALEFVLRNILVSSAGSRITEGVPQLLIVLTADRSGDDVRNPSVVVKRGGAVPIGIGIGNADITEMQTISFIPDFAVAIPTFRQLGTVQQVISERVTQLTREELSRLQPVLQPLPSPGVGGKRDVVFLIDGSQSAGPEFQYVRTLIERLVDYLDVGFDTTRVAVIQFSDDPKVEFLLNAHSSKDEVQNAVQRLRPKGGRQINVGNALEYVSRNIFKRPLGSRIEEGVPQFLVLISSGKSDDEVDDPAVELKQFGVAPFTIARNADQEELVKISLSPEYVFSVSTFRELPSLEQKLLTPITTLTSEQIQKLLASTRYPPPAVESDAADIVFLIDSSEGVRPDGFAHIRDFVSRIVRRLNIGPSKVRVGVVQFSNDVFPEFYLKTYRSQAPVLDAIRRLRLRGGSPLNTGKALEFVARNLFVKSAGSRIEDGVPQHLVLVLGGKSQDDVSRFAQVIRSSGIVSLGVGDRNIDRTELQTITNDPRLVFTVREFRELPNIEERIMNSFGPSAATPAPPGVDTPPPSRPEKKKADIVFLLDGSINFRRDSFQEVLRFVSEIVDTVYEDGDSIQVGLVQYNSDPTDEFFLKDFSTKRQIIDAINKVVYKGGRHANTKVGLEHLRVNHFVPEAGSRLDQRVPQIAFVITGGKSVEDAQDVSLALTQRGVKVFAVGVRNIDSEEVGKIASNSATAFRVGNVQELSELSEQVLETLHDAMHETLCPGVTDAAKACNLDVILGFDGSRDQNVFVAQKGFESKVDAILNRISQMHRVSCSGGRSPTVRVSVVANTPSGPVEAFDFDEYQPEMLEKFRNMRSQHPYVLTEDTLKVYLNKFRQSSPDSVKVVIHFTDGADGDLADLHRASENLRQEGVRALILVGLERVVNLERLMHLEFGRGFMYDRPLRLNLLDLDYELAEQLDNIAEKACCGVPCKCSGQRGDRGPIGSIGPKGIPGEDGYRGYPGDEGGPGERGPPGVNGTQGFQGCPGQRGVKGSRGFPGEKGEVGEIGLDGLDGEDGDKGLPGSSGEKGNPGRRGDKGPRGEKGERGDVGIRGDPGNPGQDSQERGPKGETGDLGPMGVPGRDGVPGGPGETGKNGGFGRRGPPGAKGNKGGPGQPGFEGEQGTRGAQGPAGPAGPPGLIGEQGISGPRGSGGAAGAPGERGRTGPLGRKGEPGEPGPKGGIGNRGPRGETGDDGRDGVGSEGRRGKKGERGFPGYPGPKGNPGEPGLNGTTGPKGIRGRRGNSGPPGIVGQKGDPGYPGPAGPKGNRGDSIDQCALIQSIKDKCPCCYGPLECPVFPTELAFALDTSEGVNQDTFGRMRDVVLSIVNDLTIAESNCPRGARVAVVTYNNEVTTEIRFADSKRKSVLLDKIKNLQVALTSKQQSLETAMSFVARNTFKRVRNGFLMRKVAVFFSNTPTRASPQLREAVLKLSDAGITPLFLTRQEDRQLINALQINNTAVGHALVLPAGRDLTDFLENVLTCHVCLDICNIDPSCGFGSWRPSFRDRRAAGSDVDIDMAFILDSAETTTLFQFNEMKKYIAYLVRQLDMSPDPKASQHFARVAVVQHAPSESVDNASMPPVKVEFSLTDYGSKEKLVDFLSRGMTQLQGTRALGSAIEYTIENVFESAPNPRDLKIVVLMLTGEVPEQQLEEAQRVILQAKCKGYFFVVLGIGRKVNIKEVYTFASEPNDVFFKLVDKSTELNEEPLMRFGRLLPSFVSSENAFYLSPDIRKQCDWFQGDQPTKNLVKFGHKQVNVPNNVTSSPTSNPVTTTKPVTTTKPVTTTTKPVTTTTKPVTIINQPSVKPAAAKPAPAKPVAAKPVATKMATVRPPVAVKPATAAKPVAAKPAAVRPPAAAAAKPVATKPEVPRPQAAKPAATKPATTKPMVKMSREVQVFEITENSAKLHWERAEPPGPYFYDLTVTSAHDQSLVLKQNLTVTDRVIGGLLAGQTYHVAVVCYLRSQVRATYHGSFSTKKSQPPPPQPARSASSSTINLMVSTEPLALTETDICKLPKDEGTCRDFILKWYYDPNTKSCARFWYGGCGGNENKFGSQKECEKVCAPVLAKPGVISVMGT
UniProt Q9BWP8: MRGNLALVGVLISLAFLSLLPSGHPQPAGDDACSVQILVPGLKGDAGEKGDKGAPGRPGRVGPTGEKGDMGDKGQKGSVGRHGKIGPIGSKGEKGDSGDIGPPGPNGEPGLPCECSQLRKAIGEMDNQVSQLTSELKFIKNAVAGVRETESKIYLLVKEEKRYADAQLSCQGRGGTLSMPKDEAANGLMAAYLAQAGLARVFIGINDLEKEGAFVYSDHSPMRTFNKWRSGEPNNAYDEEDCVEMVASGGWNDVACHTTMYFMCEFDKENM

Compound in the first assay: CCN(CC)Cc1ccc2cc(COC(=O)Nc3ccc(C(=O)NO)cc3)ccc2c1 [givinostat]
Kind of assay: log2 fold change, soluble protein after heating vs DMSO (PISA); higher = thermal stabilisation; K562 cells, 10 uM, 30 min; active = over 0.2 and 3.5 SD of the protein, either way, in both replicates (recomputed). The method in brief:
(§1)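 Soluble protein was quantified by TMTpro 16plex LC-MS/MS after channel sums were equalised. It was obtained as the supernatant after 21,000xg for 90 min from pooled aliquots of K562 cells (2×10^6 cells/mL, 10 μM compound, 30 min) heated for 3 min across 48°C-58°C and extracted in PBS with 0.5% NP-40 at 4°C. Thermal stability values are relative to control samples and come from duplicates. They are given as log2 fold changes.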
Turning to CRMP1 isoform 2 (UniProt Q14194), the log2 fold change is inactive: -0.19.

On to COX10 (UniProt Q12887), for which the log2 fold change is inactive: 0.016.

CPN1 (UniProt P15169): the log2 fold change is inactive: -0.034.

In the case of CROCCP2 (UniProt Q86T23), the log2 fold change was inactive: -0.213.

Turning to CRYBB1 (UniProt P53674), the log2 fold change was inactive: 0.068.

As to COL3A1 (UniProt P02461), the log2 fold change was inactive: -0.059.

With CR1L (UniProt Q2VPA4), the log2 fold change is inactive: 0.101.

In the case of CRNN (UniProt Q9UBG3), the log2 fold change was inactive: 0.496.

Consider COMMD6 isoform 2 (UniProt Q7Z4G1), for which the log2 fold change is inactive: 0.176.

For CRADD (UniProt P78560), the log2 fold change is inactive: 0.064.

On to CRYM (UniProt Q14894), for which the log2 fold change is inactive: 0.076.

Consider CPNE5 (UniProt Q9HCH3), for which the log2 fold change is inactive: -0.005.

With CREB3L2 (UniProt Q70SY1), the log2 fold change was inactive: 0.436.

As to COQ2 (UniProt Q96H96), the log2 fold change is inactive: 0.047.

Regarding CPLX1 (UniProt O14810), the log2 fold change is inactive: -0.237.

With COL25A1 (UniProt Q9BXS0), the log2 fold change was inactive: 0.142.

Turning to CPNE7 (UniProt Q9UBL6), the log2 fold change is inactive: 0.028.

As for COL6A3 (UniProt P12111), the log2 fold change is inactive: 0.249.

Compound in a further assay: CCN(CCCOc1ccc2c(Nc3cc(CC(=O)Nc4cccc(F)c4)[nH]n3)ncnc2c1)CCOP(=O)(O)O [barasertib]
The assay is described as above. The method in brief: as §1
Consider CRMP1 isoform 2 (UniProt Q14194), for which the log2 fold change was inactive: 0.035.

Consider CSGALNACT2 (UniProt Q8N6G5), for which the log2 fold change was inactive: -0.098.

Take COX10 (UniProt Q12887): the log2 fold change was inactive: 0.006.

For CPN1 (UniProt P15169), the log2 fold change is inactive: 0.002.

Turning to CROCCP2 (UniProt Q86T23), the log2 fold change was inactive: 0.016.

As for COLEC11 isoform 10 (UniProt Q9BWP8), the log2 fold change was inactive: -0.04.

With CRISP3 isoform 3 (UniProt P54108), the log2 fold change is inactive: 0.39.

As to CRNN (UniProt Q9UBG3), the log2 fold change is inactive: 0.467.

Regarding COMMD3 (UniProt Q9UBI1), the log2 fold change was inactive: 0.089.

Regarding CSNK1A1 isoform 3 (UniProt P48729), the log2 fold change was inactive: -0.089.

Take CRY2 (UniProt Q49AN0): the log2 fold change is inactive: 0.019.

Consider CPSF4 (UniProt O95639), for which the log2 fold change is inactive: -0.083.

Consider CREB3L2 (UniProt Q70SY1), for which the log2 fold change is inactive: 0.081.

For CP (UniProt P00450), the log2 fold change was inactive: -0.117.

With CS (UniProt F8VU34), the log2 fold change was inactive: -0.024.

Turning to CPLX1 (UniProt O14810), the log2 fold change is inactive: 0.058.

As to COL25A1 (UniProt Q9BXS0), the log2 fold change is inactive: -0.228.

With CPNE7 (UniProt Q9UBL6), the log2 fold change was inactive: 0.031.
